Article PMC10163288
Some of the results follow.

B1: il2ra_site2_2erj_normal_mot_HHH_b1_04462_000000080_0001_40_56_H_._HHH_b1_02157_af2_0001_0000200030_0000001_0 (protein)
chain: SSSSDREEEIVREIVEELGLSEEVQKLLEEHARIALERGASEELVEAFLRRSAEALAEALSSSSS
B2: il2ra_site2_2erj_normal_mot_HHH_b2_02252_af2_000000112_0001_23_39_H_._HHH_b2_02373_af2_0001_0000200006_0000001_0 (protein)
chain: SSSSSKEEAEELLEEAEKALEEGDEEKAERLLRRAAEIAFEEGDEELFSEIAEEAHKVARASSSS
B3: il2ra_site1_1z92_normal_mot_HHH_b1_03785_000000215_0001_1_20_H_._bef423f67012f639c2a89b71bdd22866_0001_0001_0000300012_0000001_0 (protein)
chain: SEEREEEAREILEEVLPPEAVEYYILLLKSASRSNNPRLERVVRRNIEAALGDPELARKVVELVK
B4: il2ra_site2_2erj_normal_mot_HHH_b2_04303_af2_000000294_0001_21_38_H_._HHH_b2_03312_0001_0000400028_0000001_0 (protein)
chain: SSSSSEEEKRLEELLERIEELIEEGDPEKAEELLSEAFELAYRNNDEEVAAILIELAHLVFSSSS
B5: il2ra_site2_3nfp_normal_mot_HHH_b2_05281_000000198_0001_39_56_H_._HHH_b1_04436_af2_0001_0000400043_0000001_0 (protein)
chain: SSSSDEIEELEKEAKELLEKGNPEEAREVLSKAAELAFELRDSEAFFKIAELAFKVLQLLESSSS
B6: il2ra_site1_3nfp_normal_mot_HHH_b1_01231_af2_000000170_0001_1_16_H_._HHH_b2_07449_af2_0001_0000200019_0000001_0_af2pred_0001_af2pred (protein)
chain: SSSSEERRRALELLLRALELALNGNPEEAEEVLREAEEIAEKGGNESLLKLIEAAKRATERSSSS
B7: il2ra_site1_3nfp_normal_mot_HHH_b1_00630_af2_000000193_0001_42_55_H_._be73ba4ac32714b816344d1b21815a46_0001_0001_0000200007_0000001_0_1_af2pred_0001_af2pred_1 (protein)
chain: DTAEELIAHAVEKGDKRAIKKIVELAERYLGDPEEAERLVIELLRRALNIPPEEAKELVEELLER
B8: il2ra_site2_3nfp_sap_23_mot_HHH_b1_00050_000000292_0001_22_38_H_._3932a6e8e66b0b352c148f6700bd03ae_0001_af2_0001_0001100015_0000001_0_0001_af2pred_0001_af2pred_ … (protein)
chain: SSSSDVEERIEELLELVEEAIKKGDPFRAFALLLEALELAERYNDEEAERKVEKLAKELASSSSS
B9: il2ra_site1_3nfp_sap_18_mot_HHH_b1_05070_af2_000000282_0001_43_57_H_._HHH_b1_07015_af2_0001_0001400042_0000001_0_0001 (protein)
chain: SSDEWFEELVRRVTKLAEEKNDEEVRELAEKALELWKEAAENQDMEAADEAIRIVARLQNRVKSS
B10: il2ra_site1_1z92_normal_mot_HHH_b2_04375_000000267_0001_42_56_H_._HHH_b2_08134_af2_0001_0000200026_0000001_0_af2pred_0001_af2pred (protein)
chain: SSSSDEEKEELEEFVEQLVKELGLDEEAEKRERESLERALEAGIDPEAIKKALERNARRTGSSSS
B11: il2ra_site1_1z92_sap_10_mot_22370d59370c406a0c205a431f537cfa_0001_000000027_0001_1_14_H_._HHH_b2_03329_0001_0000400034_0000001_0_0001 (protein)
chain: DDEEAEELLREILKERGSEEVLEKDLRRAERLFGDPRHALLALIMVAISFFGDPRLEEARELVKK
B12: il2ra_site1_3nfp_normal_mot_0eddeacbb14b769e73e254714f31e2f9_0001_af2_000000052_0001_37_51_H_._HHH_b1_00975_af2_0002_0000100004_0000001_0 (protein)
chain: SSSSSDEEELRERVEELLEEAKHVSEEEASRLIEEAYRLVQENGNQELADLIYRVMREMISSSSS
B13: il2ra_site2_3nfp_sap_11_mot_HHH_b2_02437_000000052_0001_42_56_H_._HHH_b1_03056_0001_0000400016_0000001_1_0001 (protein)
chain: SSSSDFEKLERMVEVAEHVAEAEGDEEVLERLRELLERAQEEGDSRLLLEAFALIRELILNSSSS
B14: il2ra_site2_3nfp_normal_mot_HHH_b1_08498_000000146_0001_21_37_H_._HHH_b2_03533_af2_0001_0000600018_0000001_0_af2pred_0001_af2pred (protein)
chain: SSSSSSSEEAIEAARWLAEILGDEEVLEQIEELLERYRKEGDERYEEEALRLLQELYESSSSSSS
B15: il2ra_site2_2erj_sap_30_mot_HHH_b2_01204_af2_000000051_0001_19_34_H_._HHH_b2_02783_0001_0000800038_0000001_1_0001_af2pred_0001_1_af2pred_swapped (protein)
chain: SSSSTEEEIEELIERIEELIKRGDREEAEELLLEALQLALKIDNEELFKRLEELREEVHGSSSSS
B16: il2ra_site2_2erj_sap_13_mot_a3b61943b7af24100a309c62926c5c00_0001_af2_000000082_0001_17_32_H_._HHH_b2_00092_0001_0000100002_0000001_0_0001 (protein)
chain: SSSSDEAEERIERLLEEAEELLERGDPAQAYEVLAEAARLVMELGDEELARLINRLMQSLMSSSS
B17: il2ra_site1_1z92_normal_mot_684917106388d69075f371d1b5c11ecb_0001_000000049_0001_53_65_H_._HHH_b1_04752_af2_0001_0000300033_0000001_0_af2pred_0001_af2pred_1 (protein)
chain: SSSSSDEEELRRFVEELVEEFGLSESAERWLRELVEEALKQGVDEHAIERDLENAARALSSSSSS
B18: il2ra_site1_3nfp_sap_11_mot_HHH_b2_00392_000000030_0001_1_16_H_._HEEHE_2134_0001_0000300048_0000001_0_0001 (protein)
chain: SHEEFVERAQKLVPPELQELLERAVKLAHERQDPELARLLIKAVALIQQGDPEKAEEVLEELERR
B19: il2ra_site2_3nfp_normal_mot_HHH_b2_00746_000000285_0001_20_36_H_._HHH_b1_03508_0001_0000200007_0000001_0 (protein)
chain: SSSSDEEELERLLREIEEAVERGDEELFRKLAQELTNLIYELGDHEAFARLNELIERFIRGSSSS

What follows are binders tested against il2ra, P01589 (assay: yeast display titration).

Apparent Kd, inactive:
B1 no binding seen
B2 no binding seen
B3 no binding seen
B4 no binding seen
B5 no binding seen
B6 no binding seen
B7 no binding seen
B8 no binding seen
B9 no binding seen
B10 no binding seen
B11 no binding seen
B12 no binding seen
B13 no binding seen
B14 no binding seen
B15 no binding seen
B16 no binding seen
B17 no binding seen
B18 no binding seen
B19 no binding seen

For reference, part of the list above:
Apparent Kd, inactive:
B15 no binding seen
B16 no binding seen
